The text below walks through data of paper PMC7819943, “Rice protein-binding microarrays: a tool to detect cis-acting elements near promoter regions in rice”.

The chains behind the UniProt entries cited, without tags or fusion partners.
UniProt Q0JBA9, entry or part of it: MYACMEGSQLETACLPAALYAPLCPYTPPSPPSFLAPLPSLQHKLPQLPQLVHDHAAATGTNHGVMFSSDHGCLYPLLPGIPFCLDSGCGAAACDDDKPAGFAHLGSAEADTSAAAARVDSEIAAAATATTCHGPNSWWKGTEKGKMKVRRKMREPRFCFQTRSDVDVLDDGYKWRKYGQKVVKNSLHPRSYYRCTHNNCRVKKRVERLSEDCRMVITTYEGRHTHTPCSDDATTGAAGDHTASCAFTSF

This is one part of the list.

In this assay the target is OsWRKY34 (Oryza sativa, UniProt Q0JBA9 1-250). As to the kind of experiment: protein-binding microarray (RPBM); PBS, 2% BSA, 51.3 ng/ul salmon testes DNA, 50 uM zinc acetate, 200 nM TF, 25 C, 1 h; high values mean tight binding. The following applies: protein: recombinant; tags: N-terminal polyhistidine and DsRed monomer fusion (pET32a); label: CyDye5-dUTP incorporated in the synthesized complementary strand; 3' TTTTT single-stranded linker to array surface; dsDNA, one strand shown. Summed up: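 Binding signal here means per-feature fluorescence intensity in arbitrary units. The values were read on an Axon 4000B scanner after a custom Agilent array, double-stranded by primer extension with Cy5-dUTP, was incubated with 200 nM protein at 25 °C for 1 h in PBS with 2% BSA, salmon testes DNA and 50 µM zinc acetate, then washed. The proteins were transcription factors with an N-terminal polyhistidine tag and DsRed, expressed in E. coli BL21-CodonPlus and purified on Ni–NTA.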
On to “TCCCCGTTTCGCCGCTTTCCGCTCATCTCGCGTATAAAAACGGAGTCACCTAGTGCAG”, for which the binding signal is 12600 fluorescence intensity (a.u.).

As to “GATCGACTACGATAGTTCAGAGGGTATTTCGTACTTTTTCCGGAGTCACCTAGTGCAG”, the binding signal was 8060 fluorescence intensity (a.u.).

For “GTGTGTTTGGAATGAGAAATGTGGGGTGGGATTGGAATTACGGAGTCACCTAGTGCAG”, the binding signal is 10700 fluorescence intensity (a.u.).

As to “TTAATAGATGACGCCGTTGATTTTTTCTCACATGTTTGACCGGAGTCACCTAGTGCAG”, the binding signal was 11600 fluorescence intensity (a.u.).

Regarding “GCTGCCTGCGCGCCGCCGCCACCGCCCGACGCCGCGGCGTCGGAGTCACCTAGTGCAG”, the binding signal is 8520 fluorescence intensity (a.u.).

In the case of “TCGATGACCCTGGCTGCTGGCTGCTTTGCCTCTTTTCTAGCGGAGTCACCTAGTGCAG”, the binding signal was 8630 fluorescence intensity (a.u.).

As to “GCTTCGAGCCTTCCTTGTCCAGCGTGGGGCGGGGCACTCCCGGAGTCACCTAGTGCAG”, the binding signal was 11900 fluorescence intensity (a.u.).

As for “TGCTTTACGCCCATCACCTTGGCACATCTGGATTTGAATCCGGAGTCACCTAGTGCAG”, the binding signal was 9160 fluorescence intensity (a.u.).

Turning to “TCCCGGCCCGTCTGACCAGTCAACGTCACTCTACAGAGCTCGGAGTCACCTAGTGCAG”, the binding signal is 11000 fluorescence intensity (a.u.).

For the sequence “GCGTCGCCTGGGCGCCCATCCGCTCTGCCGCCGCGCCGCTCGGAGTCACCTAGTGCAG”, the binding signal is 8720 fluorescence intensity (a.u.).

On to “CTTAAGAATCGTTCGCTTCAGCTGACCTCTCTCCGCCCCGCGGAGTCACCTAGTGCAG”, for which the binding signal is 8410 fluorescence intensity (a.u.).

Regarding “GGGTGGAGGAGGTGGGGAGGCCGGCGAGACTCATGTGCGGCGGAGTCACCTAGTGCAG”, the binding signal was 13100 fluorescence intensity (a.u.).

In the case of “AAGTGGGTGAGTCCAATAGGTGTGCACGTGAGGGGAGGGGCGGAGTCACCTAGTGCAG”, the binding signal is 10500 fluorescence intensity (a.u.).

“CTCTCCCTCTCGCGTGTCCATTTCACGAATTCCTCGTCTCCGGAGTCACCTAGTGCAG”: the binding signal is 11100 fluorescence intensity (a.u.).

For the sequence “AGGAAGCCACCCCATCGTCTTCAACCTCTCGATTCCGCTCCGGAGTCACCTAGTGCAG”, the binding signal was 10400 fluorescence intensity (a.u.).

With “TATTTAAGTTCACCGCGGGTCACCACACCAGCTCACACACCGGAGTCACCTAGTGCAG”, the binding signal was 9990 fluorescence intensity (a.u.).

For the sequence “CCTCTCGCCACCGTTGTTTGCCTTTGTCAATCTCCACCACCGGAGTCACCTAGTGCAG”, the binding signal is 10400 fluorescence intensity (a.u.).

For “TATATATATATATATATATATATATGAAAGTTTTATTCATCGGAGTCACCTAGTGCAG”, the binding signal is 8280 fluorescence intensity (a.u.).

Take “ATAGTTTTTTTTTCTCGCCGGCGACAGTGAGCGCCCTTCTCGGAGTCACCTAGTGCAG”: the binding signal was 8670 fluorescence intensity (a.u.).

In the case of “GACTTGCCTGTATTATACTACTAACATTTGGTTGACTTGGCGGAGTCACCTAGTGCAG”, the binding signal was 8780 fluorescence intensity (a.u.).

With “AAAAATAATTTGTGGACCAAAAACCGACCGCGCGACTTATCGGAGTCACCTAGTGCAG”, the binding signal is 8160 fluorescence intensity (a.u.).

With “ACCCACAGTCCCACACCGTCCGTCCCCTTTTATCTCATGGCGGAGTCACCTAGTGCAG”, the binding signal is 9120 fluorescence intensity (a.u.).

“CACTGACACTTACATCGATGACCTATTTATAAATATATTTCGGAGTCACCTAGTGCAG”: the binding signal was 8140 fluorescence intensity (a.u.).

Consider “GCCACGAGTTCCACGGCCGCGGCGTCGTCGTCGTCGTCGTCGGAGTCACCTAGTGCAG”, for which the binding signal was 8090 fluorescence intensity (a.u.).

“TTTCACCACCCCGGATCGACGCATGAATCTAACGCGAGCACGGAGTCACCTAGTGCAG”: the binding signal was 8320 fluorescence intensity (a.u.).

For “AAGTGCAGTCTTGAATTATCTCTCGATCATGCAGTTCTTGCGGAGTCACCTAGTGCAG”, the binding signal was 8940 fluorescence intensity (a.u.).

Consider “TCCCCGGCCGTCGCGCTCCGCTTTTCCTCCGCCGCCGCCTCGGAGTCACCTAGTGCAG”, for which the binding signal was 8200 fluorescence intensity (a.u.).

As to “ACTAGTACTAGTTGCATGTTAGCTCTGTTTCTAGCATGTTCGGAGTCACCTAGTGCAG”, the binding signal is 8410 fluorescence intensity (a.u.).

Take “GAGACACCACCCGCCGCCGCCGCCTCCTCCATTACCGAGACGGAGTCACCTAGTGCAG”: the binding signal is 8790 fluorescence intensity (a.u.).

For “AGGTGGTGTTATTACCCATAGCACTTAATGTGGGCCAATGCGGAGTCACCTAGTGCAG”, the binding signal is 8320 fluorescence intensity (a.u.).

As for “CTAGTGGCGTGGTTGCTCCCCAACGAGATCGTGCATTCTCCGGAGTCACCTAGTGCAG”, the binding signal is 8270 fluorescence intensity (a.u.).

Regarding “ACCTTGTCTCCTTACCCAGCGTTTCCAACCATGCCTAACTCGGAGTCACCTAGTGCAG”, the binding signal is 10400 fluorescence intensity (a.u.).

Consider “CCGGTAGTTTTTCCCCGTCGGCTCGGCTATTTAAATCAAGCGGAGTCACCTAGTGCAG”, for which the binding signal was 8310 fluorescence intensity (a.u.).

Consider “CCGTCCACCACCGCCTTTCTTCGATCCGTCGCCACGCCCTCGGAGTCACCTAGTGCAG”, for which the binding signal was 8150 fluorescence intensity (a.u.).

“TCCTTTATTTATCCCTGCTTCCTGGGCCATTATGGGCTGACGGAGTCACCTAGTGCAG”: the binding signal was 9040 fluorescence intensity (a.u.).

Turning to “GACCGGCAACTCTTCCTTTTTCGAGCCGTGAAATCACCACCGGAGTCACCTAGTGCAG”, the binding signal was 10200 fluorescence intensity (a.u.).

Turning to “TAATACTACTCCCTCCGTTGCAGGTTATAAAACGTTTTGTCGGAGTCACCTAGTGCAG”, the binding signal is 9290 fluorescence intensity (a.u.).

“TTGATCGAGTGCCATTTTATATACACCGTTGTGCATTTCCCGGAGTCACCTAGTGCAG”: the binding signal is 8820 fluorescence intensity (a.u.).

For the sequence “ACTTTATTACACACATAAACTTTCAACTTTACCGTCACATCGGAGTCACCTAGTGCAG”, the binding signal is 9420 fluorescence intensity (a.u.).

For “CGTCCCTGACGTTGCACCTTGTCATCGGCGCTCTGCCATACGGAGTCACCTAGTGCAG”, the binding signal was 8470 fluorescence intensity (a.u.).

Take “AACATGTTTTACGCTGGTTTTATGCCTTGACGCGCACGAGCGGAGTCACCTAGTGCAG”: the binding signal was 8310 fluorescence intensity (a.u.).

In the case of “CCTCCACGCCGACGTCGCGCTGCGCCTGCCACCTTTATCTCGGAGTCACCTAGTGCAG”, the binding signal is 10300 fluorescence intensity (a.u.).
